Test results: paper PMC11680790, “Structural and functional determination of peptide versus small molecule ligand binding at the apelin receptor” (Nature Communications, 2024)

Test system: hESC-CM
Assay: Apelin peptide secretion ELISA
Type: cell-based, human
Details: single replicates

Apelin
Secretion, Apelin (R/H168^4.64): 0.2218 ng/mL and 0.2683 ng/mL and 0.4082 ng/mL | Secretion, Apelin (WT): 0.0916 ng/mL and 0.08 ng/mL and 0.1733 ng/mL and 0.0984 ng/mL and 0.0688 ng/mL and 0.0609 ng/mL

Where “and” joins values, the source holds several entries; their conditions need not be identical. Equal entries are not always repeated.
